According to the supplement of paper PMC12823440, “Inhibitors supercharge kinase turnover through native proteolytic circuits” (Nature, 2025):
Structures can show the parent of a compound that is named as a salt. This is one part of the list. The calls rarely recur for the same compound in another form.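 Kinases, fused to nanoluciferase, were expressed in K562 cells; luminescence was measured every 4 h from 2 to 18 h as percent of control (DMSO = 100%, positive control = 0%). A time point is decreased if signal falls significantly (2 sigma). Hits were called by the authors by a rule that is not shown; the count of time points alone does not decide it.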

By UniProt entry, the sequences of proteins in these tests, tags left out. Where a name states a change or a piece, a line headed by the entry shows the natural chain unless it says otherwise.
UniProt P21860, whole entry: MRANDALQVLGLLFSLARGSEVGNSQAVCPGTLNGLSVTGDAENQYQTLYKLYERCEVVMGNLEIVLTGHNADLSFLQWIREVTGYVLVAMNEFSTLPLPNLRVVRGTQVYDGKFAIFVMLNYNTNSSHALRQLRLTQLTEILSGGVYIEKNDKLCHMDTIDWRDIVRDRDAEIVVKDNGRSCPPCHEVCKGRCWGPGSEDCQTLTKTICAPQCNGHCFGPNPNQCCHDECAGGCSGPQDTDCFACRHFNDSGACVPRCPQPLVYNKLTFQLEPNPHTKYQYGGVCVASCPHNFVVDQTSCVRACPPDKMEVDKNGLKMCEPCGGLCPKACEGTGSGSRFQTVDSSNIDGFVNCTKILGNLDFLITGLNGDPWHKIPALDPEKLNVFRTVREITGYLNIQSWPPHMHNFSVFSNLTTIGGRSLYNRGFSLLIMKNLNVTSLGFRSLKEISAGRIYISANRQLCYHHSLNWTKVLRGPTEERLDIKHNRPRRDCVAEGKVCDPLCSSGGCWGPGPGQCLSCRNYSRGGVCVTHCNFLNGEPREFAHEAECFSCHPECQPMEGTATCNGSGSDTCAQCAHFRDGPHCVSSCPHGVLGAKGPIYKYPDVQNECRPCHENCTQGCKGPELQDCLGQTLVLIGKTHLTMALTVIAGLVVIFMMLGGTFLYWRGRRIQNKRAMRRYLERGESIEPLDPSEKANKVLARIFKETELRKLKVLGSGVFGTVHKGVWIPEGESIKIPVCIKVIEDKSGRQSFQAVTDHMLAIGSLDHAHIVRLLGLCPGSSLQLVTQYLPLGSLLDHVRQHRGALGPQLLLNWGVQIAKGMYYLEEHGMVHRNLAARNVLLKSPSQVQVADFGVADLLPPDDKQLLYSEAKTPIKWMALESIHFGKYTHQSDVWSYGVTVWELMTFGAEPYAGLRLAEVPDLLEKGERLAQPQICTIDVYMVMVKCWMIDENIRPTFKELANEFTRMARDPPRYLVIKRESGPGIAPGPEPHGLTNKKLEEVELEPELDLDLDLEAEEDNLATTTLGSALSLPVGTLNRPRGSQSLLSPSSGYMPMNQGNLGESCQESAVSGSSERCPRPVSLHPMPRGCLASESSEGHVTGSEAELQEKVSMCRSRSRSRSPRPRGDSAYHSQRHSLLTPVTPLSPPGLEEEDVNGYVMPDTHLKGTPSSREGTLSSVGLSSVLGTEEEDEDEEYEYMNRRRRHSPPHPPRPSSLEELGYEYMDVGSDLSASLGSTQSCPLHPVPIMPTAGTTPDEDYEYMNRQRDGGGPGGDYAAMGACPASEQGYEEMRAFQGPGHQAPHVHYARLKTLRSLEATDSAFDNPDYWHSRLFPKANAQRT
UniProt Q15303, whole entry R711C: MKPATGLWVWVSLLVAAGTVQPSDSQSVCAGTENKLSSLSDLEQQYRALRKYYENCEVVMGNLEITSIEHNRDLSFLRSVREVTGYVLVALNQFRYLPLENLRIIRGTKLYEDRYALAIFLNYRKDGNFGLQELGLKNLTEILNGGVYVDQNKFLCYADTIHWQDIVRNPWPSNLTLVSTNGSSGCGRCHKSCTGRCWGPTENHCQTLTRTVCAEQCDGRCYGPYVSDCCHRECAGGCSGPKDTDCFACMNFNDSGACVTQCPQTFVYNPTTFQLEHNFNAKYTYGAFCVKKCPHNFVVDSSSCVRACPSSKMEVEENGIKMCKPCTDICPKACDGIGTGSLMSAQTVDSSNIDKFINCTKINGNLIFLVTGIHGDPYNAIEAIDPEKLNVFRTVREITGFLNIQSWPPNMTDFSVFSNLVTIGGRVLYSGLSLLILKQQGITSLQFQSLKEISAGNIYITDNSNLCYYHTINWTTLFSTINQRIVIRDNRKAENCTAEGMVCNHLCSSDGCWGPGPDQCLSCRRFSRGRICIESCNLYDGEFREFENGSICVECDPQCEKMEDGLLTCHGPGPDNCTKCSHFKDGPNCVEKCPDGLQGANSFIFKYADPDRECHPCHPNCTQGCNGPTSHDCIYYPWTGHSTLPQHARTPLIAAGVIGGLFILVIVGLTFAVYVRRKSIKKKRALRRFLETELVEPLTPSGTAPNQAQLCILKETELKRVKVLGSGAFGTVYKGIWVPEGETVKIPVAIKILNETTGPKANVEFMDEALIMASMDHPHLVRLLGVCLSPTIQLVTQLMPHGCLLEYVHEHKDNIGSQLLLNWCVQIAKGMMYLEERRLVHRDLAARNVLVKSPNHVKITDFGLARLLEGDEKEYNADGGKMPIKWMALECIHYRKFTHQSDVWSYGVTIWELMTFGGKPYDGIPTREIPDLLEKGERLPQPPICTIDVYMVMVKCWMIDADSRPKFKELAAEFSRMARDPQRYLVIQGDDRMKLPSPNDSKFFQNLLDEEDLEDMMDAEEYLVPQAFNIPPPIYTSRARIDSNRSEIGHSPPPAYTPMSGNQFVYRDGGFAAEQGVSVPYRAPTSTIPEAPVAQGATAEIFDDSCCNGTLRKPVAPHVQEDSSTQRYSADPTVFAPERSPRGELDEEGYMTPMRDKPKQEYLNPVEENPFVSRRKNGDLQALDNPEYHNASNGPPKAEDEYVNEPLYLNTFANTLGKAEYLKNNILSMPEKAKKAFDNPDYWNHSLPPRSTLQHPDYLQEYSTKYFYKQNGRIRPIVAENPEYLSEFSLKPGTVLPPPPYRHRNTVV
UniProt O75460: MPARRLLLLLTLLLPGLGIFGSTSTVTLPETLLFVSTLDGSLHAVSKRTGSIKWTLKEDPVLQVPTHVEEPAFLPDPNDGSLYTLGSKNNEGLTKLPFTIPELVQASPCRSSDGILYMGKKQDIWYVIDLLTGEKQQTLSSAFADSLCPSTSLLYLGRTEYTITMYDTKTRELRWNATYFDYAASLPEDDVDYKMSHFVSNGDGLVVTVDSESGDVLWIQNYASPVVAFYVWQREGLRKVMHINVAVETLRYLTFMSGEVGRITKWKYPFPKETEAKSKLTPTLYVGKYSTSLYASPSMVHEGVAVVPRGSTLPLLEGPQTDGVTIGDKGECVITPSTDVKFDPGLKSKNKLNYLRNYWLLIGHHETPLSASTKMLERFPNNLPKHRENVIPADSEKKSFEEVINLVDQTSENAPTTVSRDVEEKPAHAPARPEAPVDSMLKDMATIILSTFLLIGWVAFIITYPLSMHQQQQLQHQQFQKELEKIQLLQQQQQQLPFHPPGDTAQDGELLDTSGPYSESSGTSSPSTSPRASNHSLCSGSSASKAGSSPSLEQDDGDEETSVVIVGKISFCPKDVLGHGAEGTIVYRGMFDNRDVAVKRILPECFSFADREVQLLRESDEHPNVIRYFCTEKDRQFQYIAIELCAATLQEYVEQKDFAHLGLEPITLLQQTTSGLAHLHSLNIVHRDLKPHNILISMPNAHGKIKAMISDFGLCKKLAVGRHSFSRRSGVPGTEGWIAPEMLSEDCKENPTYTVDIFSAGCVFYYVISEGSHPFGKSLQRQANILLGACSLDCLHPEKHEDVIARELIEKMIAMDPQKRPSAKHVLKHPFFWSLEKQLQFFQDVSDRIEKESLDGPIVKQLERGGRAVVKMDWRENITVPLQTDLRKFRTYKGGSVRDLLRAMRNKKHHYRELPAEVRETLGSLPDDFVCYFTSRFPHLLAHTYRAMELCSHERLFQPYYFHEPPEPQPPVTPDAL
UniProt P11362, whole entry, looked up: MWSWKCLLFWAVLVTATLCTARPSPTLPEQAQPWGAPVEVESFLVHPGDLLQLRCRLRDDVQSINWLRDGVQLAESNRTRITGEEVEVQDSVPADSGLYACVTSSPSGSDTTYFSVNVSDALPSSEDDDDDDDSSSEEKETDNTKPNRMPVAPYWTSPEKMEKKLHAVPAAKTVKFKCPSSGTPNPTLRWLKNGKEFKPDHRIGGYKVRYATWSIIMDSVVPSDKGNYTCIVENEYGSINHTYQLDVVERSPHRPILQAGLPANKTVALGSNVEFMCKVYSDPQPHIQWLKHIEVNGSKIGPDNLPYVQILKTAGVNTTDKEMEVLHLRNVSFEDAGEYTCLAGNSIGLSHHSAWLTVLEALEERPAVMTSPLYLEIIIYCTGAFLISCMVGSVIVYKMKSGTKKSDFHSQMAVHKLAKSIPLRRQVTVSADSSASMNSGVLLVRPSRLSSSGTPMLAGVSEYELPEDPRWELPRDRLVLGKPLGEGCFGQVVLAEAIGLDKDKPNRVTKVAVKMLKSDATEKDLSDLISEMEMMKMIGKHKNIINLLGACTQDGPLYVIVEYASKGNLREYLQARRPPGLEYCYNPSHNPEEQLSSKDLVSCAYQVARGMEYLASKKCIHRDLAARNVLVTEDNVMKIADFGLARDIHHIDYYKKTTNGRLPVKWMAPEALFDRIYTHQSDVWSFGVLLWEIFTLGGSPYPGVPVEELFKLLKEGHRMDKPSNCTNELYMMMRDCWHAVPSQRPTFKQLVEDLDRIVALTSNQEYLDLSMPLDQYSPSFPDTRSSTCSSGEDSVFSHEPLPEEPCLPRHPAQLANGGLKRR
UniProt P21802, whole entry, looked up: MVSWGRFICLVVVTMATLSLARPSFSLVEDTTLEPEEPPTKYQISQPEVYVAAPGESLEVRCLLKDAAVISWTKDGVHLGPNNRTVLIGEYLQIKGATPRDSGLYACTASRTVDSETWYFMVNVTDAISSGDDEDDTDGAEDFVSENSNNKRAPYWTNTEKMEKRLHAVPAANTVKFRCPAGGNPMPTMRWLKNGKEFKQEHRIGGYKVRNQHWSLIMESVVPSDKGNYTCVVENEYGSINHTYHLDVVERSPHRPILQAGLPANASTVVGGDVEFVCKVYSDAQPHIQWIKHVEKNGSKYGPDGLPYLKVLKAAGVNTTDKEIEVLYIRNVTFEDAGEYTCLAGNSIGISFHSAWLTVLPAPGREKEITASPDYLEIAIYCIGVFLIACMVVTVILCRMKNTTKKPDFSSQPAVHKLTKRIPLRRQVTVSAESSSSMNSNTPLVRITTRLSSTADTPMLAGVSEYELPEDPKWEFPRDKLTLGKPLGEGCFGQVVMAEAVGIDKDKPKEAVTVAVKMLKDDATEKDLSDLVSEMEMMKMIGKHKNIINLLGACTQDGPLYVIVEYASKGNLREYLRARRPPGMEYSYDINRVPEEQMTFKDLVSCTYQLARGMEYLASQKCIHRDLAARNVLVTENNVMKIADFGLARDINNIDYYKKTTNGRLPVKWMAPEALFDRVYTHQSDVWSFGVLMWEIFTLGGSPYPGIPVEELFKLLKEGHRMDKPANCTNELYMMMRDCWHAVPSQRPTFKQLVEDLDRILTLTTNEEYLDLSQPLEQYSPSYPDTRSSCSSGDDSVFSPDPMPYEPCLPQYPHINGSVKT
UniProt P22607, whole entry, looked up: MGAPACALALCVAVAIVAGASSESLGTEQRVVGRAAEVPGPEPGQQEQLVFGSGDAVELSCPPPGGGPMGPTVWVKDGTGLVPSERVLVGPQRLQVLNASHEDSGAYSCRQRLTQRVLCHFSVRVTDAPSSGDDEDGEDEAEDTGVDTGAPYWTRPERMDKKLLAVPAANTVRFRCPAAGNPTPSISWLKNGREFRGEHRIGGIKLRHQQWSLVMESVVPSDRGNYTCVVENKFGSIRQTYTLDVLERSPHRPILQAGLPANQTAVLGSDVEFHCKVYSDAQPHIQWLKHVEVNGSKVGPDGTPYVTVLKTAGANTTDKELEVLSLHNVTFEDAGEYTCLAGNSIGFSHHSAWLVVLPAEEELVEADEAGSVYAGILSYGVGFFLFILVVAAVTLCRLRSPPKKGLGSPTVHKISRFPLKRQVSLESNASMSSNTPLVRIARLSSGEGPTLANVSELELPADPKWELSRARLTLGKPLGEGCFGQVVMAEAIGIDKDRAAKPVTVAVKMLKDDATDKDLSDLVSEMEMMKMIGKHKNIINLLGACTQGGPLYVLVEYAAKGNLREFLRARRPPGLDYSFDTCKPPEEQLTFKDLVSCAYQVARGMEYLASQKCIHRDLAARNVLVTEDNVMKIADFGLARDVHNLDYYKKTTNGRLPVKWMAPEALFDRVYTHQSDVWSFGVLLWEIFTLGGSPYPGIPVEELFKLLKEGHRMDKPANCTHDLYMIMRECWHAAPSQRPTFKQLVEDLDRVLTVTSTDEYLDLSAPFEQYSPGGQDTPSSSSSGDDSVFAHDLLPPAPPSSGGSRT

Assays:
Experiment in all cases: number of time points (of 5) at which kinase-Nluc abundance scored as decreased, DMSO-normalised (count); higher = more persistent destabilization
Details in all cases: K562; 2-18 h
[1] = target: EGFR_L861Q (UniProt P00533)
[2] = target: EGFR_T790M (UniProt P00533)
[3] = target: EPHA2 (UniProt P29317)
[4] = target: ERBB3 (UniProt P21860)
[5] = target: ERBB4_R711C (clone: ERBB4_mut) (UniProt Q15303)
[6] = target: ERN1 (UniProt O75460)
[7] = target: FGFR1 (UniProt P11362)
[8] = target: FGFR2 (UniProt P21802)
[9] = target: FGFR3 (UniProt P22607)
[10] = target: FGR (UniProt P09769)

Measured: number of time points

C[C@@H]1COCCN1c1cc(=O)n2c(n1)N(Cc1cncc(Cl)c1)[C@H](C(F)(F)F)CC2 (10 µM)
0: all assays above

COc1cc(N2CCC(N3CCN(C)CC3)CC2)ccc1Nc1nc2c(c(Nc3ccccc3S(=O)(=O)NC(C)C)n1)CCN2 [Conteltinib] (10 µM)
0: all assays above

CC(C)(C)Cn1c(N)nc2ccc(-c3[nH]c(C(C)(C)C)nc3-c3ccc(F)cc3)nc21 [Ralimetinib dimesylate] (2.5 µM)
0: all assays above

Cn1cc(-c2ccc3nnc(C(F)(F)c4ccc5ncccc5c4)n3n2)cn1 (10 µM)
0: all assays above

O=C1NC(=O)C(=Cc2ccc3c(c2)OCO3)S1 (10 µM)
0: all assays above

NC(=O)c1ccc(-c2cnn3ccc(NCc4cccnc4)nc23)cc1 (2.5 µM)
0: all assays above

[O-][n+]1cccc(-c2nc3c(Cl)cccc3cc2[C@@H](Nc2ncnc3cccnc23)C(F)(F)F)c1 [Seletalisib] (10 µM)
0: all assays above

C[C@H]1[C@H](OC(=O)CCC(=O)O)O[C@@H]2O[C@@]3(C)CC[C@H]4[C@H](C)CC[C@@H]1[C@@]24OO3 [Artesunate] (2.5 µM)
2: [1]
1: [5]
0: all other assays above

NCCCCCCNS(=O)(=O)c1cccc2c(Cl)cccc12 [W-7 (hydrochloride)] (10 µM)
0: all assays above

CN1CCN(CCCNc2ncc(Cl)c(-c3cc4c(C(=O)NC5CC5)cccc4s3)n2)CC1 (10 µM)
0: all assays above

C=C[C@H]1[C@H](O[C@@H]2O[C@H](CO)[C@@H](O)[C@H](O)[C@H]2OC(=O)c2c(O)cc(O)cc2-c2cccc(O)c2)OC=C2C(=O)OCC[C@H]21 [Amarogentin] (10 µM)
0: all assays above

CCOc1c([C@H](C)n2nc(C)c3c(N)ncnc32)cc(Cl)c(F)c1[C@@H]1CNC(=O)C1 [Parsaclisib (hydrochloride)] (10 µM)
0: all assays above

C=CS(=O)(=O)c1ccc(Nc2nc(OCC3CCCCC3)c3[nH]cnc3n2)cc1 (2.5 µM)
0: all assays above

COc1ccc2c(c1)c(C1=C(c3c[nH]c4ccccc34)C(=O)NC1=O)cn2CCCN(C)C (10 µM)
0: all assays above

CCCNC(=O)c1cn2ncnc(Nc3cc(C(=O)NC4CC4)ccc3C)c2c1C (10 µM)
0: all assays above

C[C@@H]1CCc2ncc(F)cc2[C@H]2CCCN2c2ccn3ncc(c3n2)C(=O)N1 [Selitrectinib] (10 µM)
0: all assays above

Cn1ncc(Cl)c1-c1cc(C(=O)N[C@H](CN)Cc2ccc(F)c(F)c2)sc1Cl (10 µM)
1: [7]
2: [8]
0: all other assays above

COC(=O)N[C@@H](C)CNc1nccc(-c2cn(C(C)C)nc2-c2cc(Cl)cc(NS(C)(=O)=O)c2F)n1 [Encorafenib] (10 µM)
0: all assays above

CN(C)C(=O)c1ccc(S(=O)(=O)c2ccc(NC(=O)[C@@](C)(O)C(F)(F)F)c(Cl)c2)cc1 (10 µM)
1: [1]
0: all other assays above

COc1ccc2c(c1OC)OC1c3ccc(O)cc3OCC21 (stereo not given) [Methylnissolin] (10 µM)
0: all assays above

C=CC(=O)N1CCC[C@@H](n2nc(C(=O)Nc3ccc(CC(=O)N(C)C)c(C)c3C)c3c(N)ncnc32)C1 (10 µM)
0: all assays above

A draw from above in order of heavy-atom count, ascending.
CN(C)C(=O)c1ccc(S(=O)(=O)c2ccc(NC(=O)[C@@](C)(O)C(F)(F)F)c(Cl)c2)cc1 (10 µM)
1: [1]
0: all other assays above

COC(=O)N[C@@H](C)CNc1nccc(-c2cn(C(C)C)nc2-c2cc(Cl)cc(NS(C)(=O)=O)c2F)n1 [Encorafenib] (10 µM)
0: all assays above

C=CC(=O)N1CCC[C@@H](n2nc(C(=O)Nc3ccc(CC(=O)N(C)C)c(C)c3C)c3c(N)ncnc32)C1 (10 µM)
0: all assays above

More compounds follow.

Cc1nc(NC(=O)NCCc2nnn(CCF)n2)sc1-c1ccc(S(C)(=O)=O)c(F)c1 (10 µM)
0: all assays above

CN1C(=O)NC(Cc2c[nH]c3c(Cl)cccc23)C1=O (racemic) [Necrostatin 2 (racemate)] (10 µM)
0: all assays above

c1cc(-c2cnn3cc(-c4ccc(N5CCNCC5)cc4)cnc23)c2cccnc2c1 (2.5 µM)
2: [7]
0: all other assays above

Nc1cc(C(F)F)c(-c2nc(N3C4CCC3COC4)nc(N3C4CCC3COC4)n2)cn1 (2.5 µM)
0: all assays above

O=C1NC(=O)C(c2cnc3ccccn23)=C1c1cn2c3c(cc(F)cc13)CN(C(=O)N1CCCCC1)CC2 (2.5 µM)
0: all assays above

c1ccc(-c2oc3ncnc(NC[C@@H]4CCCO4)c3c2-c2ccccc2)cc1 (2.5 µM)
0: all assays above

COc1ncc(Nc2ncc([C@@H](C)N3CCN(S(C)(=O)=O)CC3)cc2-c2nc(C)nc(N)n2)cc1F (10 µM)
0: all assays above

COc1nc(-c2cccc3c2OCCO3)ccc1Nc1ccc(CN(C)C)cc1 [RAS inhibitor Abd-7] (10 µM)
0: all assays above

CC(C)(O)[C@@H]1CC[C@](C)([C@H]2[C@@H](O)C[C@@]3(C)[C@@H]4C[C@H](O[C@@H]5O[C@H](CO)[C@@H](O)[C@H](O)[C@H]5O)[C@H]5C(C)(C)[C@@H](O[C@@H]6OC[C@@H](O)[C@H](O)[C@H]6O[C@@H]6O[C@H](CO)[C@@H](O)[C@H](O)[C@H]6O)CC[C@@]56C[C@@]46CC[C@]23C)O1 [Astragaloside VI] (10 µM)
0: all assays above

CCN(C)C(=O)c1ccc2c(C(=Nc3ccc(CN4CCCCC4)cc3)c3ccccc3)c(O)[nH]c2c1 (2.5 µM)
0: all assays above

O=C(Nc1cccc(-c2nncn2C2CC2)c1)c1cc(-n2cnc(C3CC3)c2)ccn1 (10 µM)
1: [7]
0: all other assays above

CC1=C(C(=O)Nc2ccc3[nH]ncc3c2)C(c2ccc(F)cc2)NC(=O)N1 (stereo not given) (10 µM)
0: all assays above

Cc1cnc(Nc2ccc(N3CCN(C)CC3)cc2)nc1Nc1cccc(S(=O)(=O)NC(C)(C)C)c1 (2.5 µM)
0: all assays above
